According to patent US20250179161A1:
Substitutions are numbered along the chain they refer to. Results are given in words; binding and its absence hold for the method and conditions named. Some binding calls cover weakened binding; strength is not graded here.

B1: h2927 (antibody, V domains shown)
VH: EVQLLESGGGLVQPGGSLRLSCAASGFTFSNFGMSWVRQAPGKGLEWVASVRSGSGRTYYSDNVKGRFTISRDNSKNTLYLQMNSLRAEDTAVYYCVRYDHYTGTSDYWGQGTLVTVSS
VL: DVVMTQSPLSLPVTPGEPASISCKSSQSLLDYDGKTYLNWLLQKPGQSPQRLIYKVSNRDSGVPDRFSGSGSGTDFTLKISRVEAEDVGVYYCWQGTHFPRSFGQGTKVEIK
B2: h2826 (antibody, V domains shown)
VH: B1 VH with T103S
VL: B1 VL with S102T
B3: h2929 (antibody, V domains shown)
VH: B1 VH
VL: B1 VL with K24R, L30V, K44R, T97S, F103Y
B4: h4917G (antibody, V domains shown)
VH: B1 VH with S55G, T103S
VL: B1 VL with P15L, Y32S, S57T, D60E
B5: h49k3G (antibody, V domains shown)
VH: B1 VH with S55G, T103S
VL: B1 VL with P15L, Y32S, S102T
B6: h2926 (antibody, V domains shown)
VH: B1 VH
VL: B1 VL with S102T
B7: h2831 (antibody, V domains shown)
VH: B1 VH with T103S
VL: B1 VL with P15L, K55R, S57T, S61T
B8: h2931 (antibody, V domains shown)
VH: B1 VH
VL: B1 VL with P15L, K55R, S57T, S61T

target: Amyloid Beta (Aβ) 1-42 (human); assay: competition ELISA on plate-coated Aβ42 fibrils; competitor: biotinylated hBP (bapineuzumab)

binding, binds:
B1
B2
B3
B4
B5
B6

target: Aβ1-28 (human); assay: SPR (BIAcore): antibody captured by anti-human Fc, Aβ1-28 as analyte in 2-fold dilutions, 1:1 binding fit overlaid

binding, binds:
B7
B8
